Source: the supplement of paper PMC5355238
Structures can show the parent of a compound that is named as a salt. This is one part of the list. Most values lie at the level of the controls, where differences are scatter.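 Reh is a human leukemia cell line; the read-out is the median γH2AX antibody signal in S-phase cells by flow cytometry, with the score counting standard deviations from the median difference of each paired set of plates. Scores above 2.5 were called candidate hits, while scores below -2 mark compounds that lowered the MK1775-induced damage.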

Each compound was assayed on Reh (assay: Z' of S-phase gammaH2AX difference (drug + MK1775 minus drug alone) (Z-score); higher = stronger synergistic S-phase DNA damage with MK1775). Conditions: MK1775 concentration 400 nM; first compound 10 µM; 4 h.
In the case of `C[N+]1(C)CCN(c2ccccc2)CC1` [1,1-Dimethyl-4-phenyl-piperazinium iodide] + C=CCn1c(=O)c2cnc(Nc3ccc(N4CCN(C)CC4)cc3)nc2n1-c1cccc(C(C)(C)O)n1 [MK1775], the “Z' of S-phase gammaH2AX difference (Z-score)” value is reported as inactive: -0.857. `NC(=O)COc1c(F)cc(SCCNS(=O)(=O)c2ccccc2)cc1F` + C=CCn1c(=O)c2cnc(Nc3ccc(N4CCN(C)CC4)cc3)nc2n1-c1cccc(C(C)(C)O)n1 [MK1775] was tested, and the “Z' of S-phase gammaH2AX difference (Z-score)” value was inactive: 0.0534. `CCCN1CCC[C@H](c2cccc(O)c2)C1` [R(+)-3PPP hydrochloride] + C=CCn1c(=O)c2cnc(Nc3ccc(N4CCN(C)CC4)cc3)nc2n1-c1cccc(C(C)(C)O)n1 [MK1775] was tested, and the “Z' of S-phase gammaH2AX difference (Z-score)” value was inactive: -0.121. `NCCc1ccc(O)cc1` [4-Hydroxyphenethylamine hydrochloride] + C=CCn1c(=O)c2cnc(Nc3ccc(N4CCN(C)CC4)cc3)nc2n1-c1cccc(C(C)(C)O)n1 [MK1775] was tested, and the “Z' of S-phase gammaH2AX difference (Z-score)” value was inactive: 0.591. With `CN(C(=O)Cc1ccc(Cl)c(Cl)c1)C(CN1CCCC1)c1cccc(OCC(=O)O)c1` (stereo not drawn) [ICI 204,448 hydrochloride] + C=CCn1c(=O)c2cnc(Nc3ccc(N4CCN(C)CC4)cc3)nc2n1-c1cccc(C(C)(C)O)n1 [MK1775] the “Z' of S-phase gammaH2AX difference (Z-score)” value was inactive: 0.284. For `CCn1cc(C(=O)O)c(=O)c2cc3c(cc21)OCO3` [Oxolinic acid] + C=CCn1c(=O)c2cnc(Nc3ccc(N4CCN(C)CC4)cc3)nc2n1-c1cccc(C(C)(C)O)n1 [MK1775], the “Z' of S-phase gammaH2AX difference (Z-score)” value was inactive: -0.446. `C[N+]1(C)[C@@H]2C[C@@H](OC(=O)[C@H](CO)c3ccccc3)C[C@H]1[C@@H]1O[C@@H]12` [(-)-Scopolamine methyl bromide] + C=CCn1c(=O)c2cnc(Nc3ccc(N4CCN(C)CC4)cc3)nc2n1-c1cccc(C(C)(C)O)n1 [MK1775] was tested, and the “Z' of S-phase gammaH2AX difference (Z-score)” value was inactive: -1.35. With `C[C@@H]1O[C@@H](O[C@H]2C[C@@H](O)[C@]3(CO)[C@H]4[C@H](O)C[C@]5(C)[C@@H](C6=CC(=O)OC6)CC[C@]5(O)[C@@H]4CC[C@]3(O)C2)[C@H](O)[C@H](O)[C@H]1O` [Ouabain] + C=CCn1c(=O)c2cnc(Nc3ccc(N4CCN(C)CC4)cc3)nc2n1-c1cccc(C(C)(C)O)n1 [MK1775] the “Z' of S-phase gammaH2AX difference (Z-score)” value was inactive: -0.505. With `C[C@@H](N)Cc1cnc[nH]1` [Histamine, R(-)-alpha-methyl-, dihydrochloride] + C=CCn1c(=O)c2cnc(Nc3ccc(N4CCN(C)CC4)cc3)nc2n1-c1cccc(C(C)(C)O)n1 [MK1775] the “Z' of S-phase gammaH2AX difference (Z-score)” value was inactive: 0.644. For `Clc1cc(I)cc(Cl)c1NC1=NCCN1` [p-Iodoclonidine hydrochloride] + C=CCn1c(=O)c2cnc(Nc3ccc(N4CCN(C)CC4)cc3)nc2n1-c1cccc(C(C)(C)O)n1 [MK1775], the “Z' of S-phase gammaH2AX difference (Z-score)” value was inactive: -0.085. With `NNC(=O)c1ccc(O)cc1` [4-Hydroxybenzhydrazide] + C=CCn1c(=O)c2cnc(Nc3ccc(N4CCN(C)CC4)cc3)nc2n1-c1cccc(C(C)(C)O)n1 [MK1775] the “Z' of S-phase gammaH2AX difference (Z-score)” value was inactive: 1.6. For `COc1ccc(Cc2nccc3cc(OC)c(OC)cc23)cc1OC` [Papaverine hydrochloride] + C=CCn1c(=O)c2cnc(Nc3ccc(N4CCN(C)CC4)cc3)nc2n1-c1cccc(C(C)(C)O)n1 [MK1775], the “Z' of S-phase gammaH2AX difference (Z-score)” value was inactive: 1.29. In the case of `NCCCP(=O)(O)O` [3-Aminopropylphosphonic acid] + C=CCn1c(=O)c2cnc(Nc3ccc(N4CCN(C)CC4)cc3)nc2n1-c1cccc(C(C)(C)O)n1 [MK1775], the “Z' of S-phase gammaH2AX difference (Z-score)” value is reported as inactive: -0.254. In the case of `CNCCc1c[nH]c2ccc(O)cc12` [N-omega-Methyl-5-hydroxytryptamine oxalate salt] + C=CCn1c(=O)c2cnc(Nc3ccc(N4CCN(C)CC4)cc3)nc2n1-c1cccc(C(C)(C)O)n1 [MK1775], the “Z' of S-phase gammaH2AX difference (Z-score)” value is reported as inactive: -0.825. For `O=C[C@H](Cl)[C@@H](O)[C@H](O)[C@H](O)CO` [2-Chloro-2-deoxy-D-glucose] + C=CCn1c(=O)c2cnc(Nc3ccc(N4CCN(C)CC4)cc3)nc2n1-c1cccc(C(C)(C)O)n1 [MK1775], the “Z' of S-phase gammaH2AX difference (Z-score)” value was inactive: 0.0735. `NNC(N)=O` [Semicarbazide hydrochloride] + C=CCn1c(=O)c2cnc(Nc3ccc(N4CCN(C)CC4)cc3)nc2n1-c1cccc(C(C)(C)O)n1 [MK1775] was tested, and the “Z' of S-phase gammaH2AX difference (Z-score)” value was inactive: -0.14. In the case of `COC(=O)C1=CCCN(C)C1` [Arecoline hydrobromide] + C=CCn1c(=O)c2cnc(Nc3ccc(N4CCN(C)CC4)cc3)nc2n1-c1cccc(C(C)(C)O)n1 [MK1775], the “Z' of S-phase gammaH2AX difference (Z-score)” value is reported as inactive: -0.501. For `C=C(C)[C@H]1Cc2c(ccc3c2O[C@@H]2COc4cc(OC)c(OC)cc4[C@@H]2C3=O)O1` [Rotenone] + C=CCn1c(=O)c2cnc(Nc3ccc(N4CCN(C)CC4)cc3)nc2n1-c1cccc(C(C)(C)O)n1 [MK1775], the “Z' of S-phase gammaH2AX difference (Z-score)” value was inactive: -0.509. `Fc1ccc(C(OCCN2CCN(CCCc3ccccc3)CC2)c2ccc(F)cc2)cc1` + C=CCn1c(=O)c2cnc(Nc3ccc(N4CCN(C)CC4)cc3)nc2n1-c1cccc(C(C)(C)O)n1 [MK1775] was tested, and the “Z' of S-phase gammaH2AX difference (Z-score)” value was inactive: -0.634. For `N[C@@H](CCl)C(=O)O` [beta-Chloro-L-alanine hydrochloride] + C=CCn1c(=O)c2cnc(Nc3ccc(N4CCN(C)CC4)cc3)nc2n1-c1cccc(C(C)(C)O)n1 [MK1775], the “Z' of S-phase gammaH2AX difference (Z-score)” value was inactive: 0.795. In the case of `CC(N)Cc1c[nH]c2ccc(O)cc12` (stereo not drawn) [alpha-Methyl-5-hydroxytryptamine maleate] + C=CCn1c(=O)c2cnc(Nc3ccc(N4CCN(C)CC4)cc3)nc2n1-c1cccc(C(C)(C)O)n1 [MK1775], the “Z' of S-phase gammaH2AX difference (Z-score)” value is reported as inactive: -1.01. `CN(N=O)c1cc(O)ccc1O` [Dephostatin] + C=CCn1c(=O)c2cnc(Nc3ccc(N4CCN(C)CC4)cc3)nc2n1-c1cccc(C(C)(C)O)n1 [MK1775] was tested, and the “Z' of S-phase gammaH2AX difference (Z-score)” value was inactive: 0.415. In the case of `Oc1cc2c(cc1O)[C@H]1c3ccccc3CN[C@@H]1CC2` (racemic) [Dihydrexidine hydrochloride] + C=CCn1c(=O)c2cnc(Nc3ccc(N4CCN(C)CC4)cc3)nc2n1-c1cccc(C(C)(C)O)n1 [MK1775], the “Z' of S-phase gammaH2AX difference (Z-score)” value is reported as inactive: 0.202.
